Laboratory results as given in patent US20230265116A1, “DEGRADATION OF (EGFR) BY CONJUGATION OF EGFR INHIBITORS WITH E3 LIGASE LIGAND AND METHODS OF USE” (BEIGENE, LTD., priority 2020, published 2023).
Structures were worked out from names or drawings and are uncertain.

By UniProt entry, the sequences of proteins in these tests, tags left out. Where a name states a change or a piece, a line headed by the entry shows the natural chain unless it says otherwise. Chains listed by the source or under a name are the forms on record and can include a tag or linker. Residues count along the entry.
UniProt P00533, 25-1210 limits assumed: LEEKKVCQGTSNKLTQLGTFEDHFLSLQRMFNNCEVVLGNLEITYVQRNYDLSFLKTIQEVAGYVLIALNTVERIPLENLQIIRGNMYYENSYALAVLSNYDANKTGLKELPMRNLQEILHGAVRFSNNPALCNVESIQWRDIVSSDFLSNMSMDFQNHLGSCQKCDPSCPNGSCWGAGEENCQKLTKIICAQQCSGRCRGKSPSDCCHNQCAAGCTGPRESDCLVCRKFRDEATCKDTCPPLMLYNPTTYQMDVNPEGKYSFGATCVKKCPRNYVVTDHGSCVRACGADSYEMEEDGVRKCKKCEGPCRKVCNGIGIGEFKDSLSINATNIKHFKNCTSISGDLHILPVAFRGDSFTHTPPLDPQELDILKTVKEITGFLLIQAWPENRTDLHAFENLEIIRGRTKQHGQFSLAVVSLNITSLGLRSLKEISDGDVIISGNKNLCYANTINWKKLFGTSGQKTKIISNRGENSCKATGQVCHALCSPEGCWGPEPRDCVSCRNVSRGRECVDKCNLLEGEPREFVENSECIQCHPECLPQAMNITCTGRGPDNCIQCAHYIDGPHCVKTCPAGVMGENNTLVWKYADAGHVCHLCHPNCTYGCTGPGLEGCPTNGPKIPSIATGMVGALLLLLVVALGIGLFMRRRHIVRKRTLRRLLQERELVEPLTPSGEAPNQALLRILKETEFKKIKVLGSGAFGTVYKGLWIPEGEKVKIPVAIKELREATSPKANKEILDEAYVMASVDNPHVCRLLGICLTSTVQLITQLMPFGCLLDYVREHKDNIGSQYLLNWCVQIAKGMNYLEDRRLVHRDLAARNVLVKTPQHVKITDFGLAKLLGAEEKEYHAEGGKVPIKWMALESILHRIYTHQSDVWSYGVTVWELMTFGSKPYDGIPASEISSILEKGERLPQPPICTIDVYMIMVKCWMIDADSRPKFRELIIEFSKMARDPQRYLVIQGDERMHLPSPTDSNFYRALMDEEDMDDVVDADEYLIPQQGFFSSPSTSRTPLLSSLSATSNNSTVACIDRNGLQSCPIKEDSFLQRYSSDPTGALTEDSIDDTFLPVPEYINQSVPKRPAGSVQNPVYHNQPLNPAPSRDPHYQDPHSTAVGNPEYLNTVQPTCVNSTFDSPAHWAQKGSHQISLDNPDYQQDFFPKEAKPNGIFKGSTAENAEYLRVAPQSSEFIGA
UniProt P00533, 25-1210 T790M/C797S/L858R limits assumed: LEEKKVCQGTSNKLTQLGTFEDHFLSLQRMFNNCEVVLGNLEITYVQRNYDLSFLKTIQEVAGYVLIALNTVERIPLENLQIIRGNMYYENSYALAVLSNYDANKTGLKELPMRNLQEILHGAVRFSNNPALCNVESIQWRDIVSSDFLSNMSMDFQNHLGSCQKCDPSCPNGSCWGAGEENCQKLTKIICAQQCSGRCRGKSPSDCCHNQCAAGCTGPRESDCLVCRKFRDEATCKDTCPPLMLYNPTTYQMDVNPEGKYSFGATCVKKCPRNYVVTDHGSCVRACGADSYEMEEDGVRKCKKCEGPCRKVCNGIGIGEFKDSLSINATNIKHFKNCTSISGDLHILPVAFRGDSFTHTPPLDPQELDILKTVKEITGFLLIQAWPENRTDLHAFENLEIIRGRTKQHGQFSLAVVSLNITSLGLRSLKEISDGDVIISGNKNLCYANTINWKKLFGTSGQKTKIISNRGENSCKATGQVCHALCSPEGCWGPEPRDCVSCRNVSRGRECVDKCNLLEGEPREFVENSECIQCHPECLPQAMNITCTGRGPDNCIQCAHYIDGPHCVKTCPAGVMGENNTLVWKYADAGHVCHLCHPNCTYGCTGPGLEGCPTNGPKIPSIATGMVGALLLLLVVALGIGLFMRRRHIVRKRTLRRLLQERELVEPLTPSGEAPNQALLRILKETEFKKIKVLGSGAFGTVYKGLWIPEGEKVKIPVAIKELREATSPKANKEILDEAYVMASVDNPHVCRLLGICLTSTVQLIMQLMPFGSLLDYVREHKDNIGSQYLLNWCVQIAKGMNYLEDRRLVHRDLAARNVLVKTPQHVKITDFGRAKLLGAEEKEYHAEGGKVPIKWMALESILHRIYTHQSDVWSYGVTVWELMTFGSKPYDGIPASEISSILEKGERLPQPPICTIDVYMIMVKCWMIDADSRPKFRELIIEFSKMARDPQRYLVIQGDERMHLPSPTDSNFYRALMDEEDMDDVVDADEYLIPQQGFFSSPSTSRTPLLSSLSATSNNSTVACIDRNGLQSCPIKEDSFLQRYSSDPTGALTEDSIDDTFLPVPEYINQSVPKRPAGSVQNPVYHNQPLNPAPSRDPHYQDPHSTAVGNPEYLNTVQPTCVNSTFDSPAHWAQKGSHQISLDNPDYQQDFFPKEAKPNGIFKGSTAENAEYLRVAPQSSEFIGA
UniProt P00533, with tags, fused parts or gaps DEL746-750 limits assumed: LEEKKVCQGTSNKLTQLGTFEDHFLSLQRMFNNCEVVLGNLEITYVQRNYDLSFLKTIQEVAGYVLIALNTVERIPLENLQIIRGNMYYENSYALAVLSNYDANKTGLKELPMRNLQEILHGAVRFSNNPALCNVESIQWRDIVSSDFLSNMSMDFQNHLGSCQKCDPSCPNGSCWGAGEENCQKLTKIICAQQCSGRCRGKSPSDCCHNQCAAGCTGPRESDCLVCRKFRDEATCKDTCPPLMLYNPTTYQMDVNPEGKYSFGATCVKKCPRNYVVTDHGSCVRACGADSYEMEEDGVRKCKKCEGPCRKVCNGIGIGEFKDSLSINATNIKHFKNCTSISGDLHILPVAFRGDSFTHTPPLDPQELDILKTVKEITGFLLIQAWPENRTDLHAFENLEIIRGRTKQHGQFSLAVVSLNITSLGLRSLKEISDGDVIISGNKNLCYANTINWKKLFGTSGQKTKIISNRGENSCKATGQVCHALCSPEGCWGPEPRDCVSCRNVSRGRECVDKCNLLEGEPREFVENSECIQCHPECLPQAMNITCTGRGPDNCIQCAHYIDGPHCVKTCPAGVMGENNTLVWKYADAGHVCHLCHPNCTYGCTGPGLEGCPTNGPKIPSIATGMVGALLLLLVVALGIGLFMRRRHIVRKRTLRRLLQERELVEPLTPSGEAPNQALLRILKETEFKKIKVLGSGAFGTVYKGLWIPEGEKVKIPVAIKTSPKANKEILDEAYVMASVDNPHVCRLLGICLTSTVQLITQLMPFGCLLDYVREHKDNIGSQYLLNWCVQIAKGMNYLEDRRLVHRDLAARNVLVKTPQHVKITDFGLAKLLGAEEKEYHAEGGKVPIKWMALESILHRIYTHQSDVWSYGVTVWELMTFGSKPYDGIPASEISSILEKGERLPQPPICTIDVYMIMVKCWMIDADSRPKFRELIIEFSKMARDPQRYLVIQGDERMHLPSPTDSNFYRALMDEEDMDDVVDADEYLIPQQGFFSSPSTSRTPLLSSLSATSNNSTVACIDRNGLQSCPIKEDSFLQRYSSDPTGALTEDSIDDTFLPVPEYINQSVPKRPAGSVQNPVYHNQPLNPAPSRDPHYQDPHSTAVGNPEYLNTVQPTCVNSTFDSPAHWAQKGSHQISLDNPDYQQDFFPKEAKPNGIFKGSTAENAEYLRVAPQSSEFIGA

Experiments:
[1] = target: EGFR L858R/T790M/C797S (BaF3-LTC cells) (Homo sapiens, UniProt P00533, C797S/L858R/T790M); test: EGFR degradation HTRF assay, BaF3-LTC cells; type: cell-based
Protocol: (§1) BaF3 WT(wild type), BaF3-LTC(L858R/T790M/C797S) and BaF3-DTC(Del19/T790M/C797S) cells are treated with compounds diluted in 0.2% DMSO cell culture medium and incubate for 16h, 37° C., 5% CO2, H1975-#36, H1975-#28, H1975-#23 and HCC827 cells are treated with compounds diluted in 0.2% DMSO cell culture medium on day 2, incubate for 16h, 37° C., 5% CO2.the final concentriation of compounds in all assay is start with 10 uM, 5-fold dilution, total 8 doses were included.
(§2) After 16h treatment, add HTRF lysis buffer to each well; seal the plate and incubate 1 hour at room temperature on a plate shaker; Once the cells are lysed, 16 μL of cell lysate are transferred to a PE 384-well HTRF detection plate; 4 μL of pre-mixed HTRF antibodies are added to each well; Cover the plate with a plate sealer, spin 1000 rpm for 1 min, Incubate overnight at room temperature; Read on BMG PheraStar with HTRF protocol (337 nm-665 nm-620 nm).
(§3) The inhibition (degradation) percentage of the compound was calculated by the following equation: Inhibition percentage of Compound=100-100×(Signal-low control)/(High control-low control), wherein signal=each test compound group
(§4) High control=Cell group with added DMSO and without compound, indicating microplate readings without EGFR degradation;
(§5) Dmax is the maximum percentage of inhibition (degradation). […]

[2] = tested on: EGFR Del19/T790M/C797S (BaF3-DTC cells); test: EGFR degradation HTRF assay, BaF3-DTC cells; type: cell-based
Protocol: as §1, §2, §3, §4, §5

EGFR (HCC827 cells) = EGFR (HCC827 cells) (Homo sapiens, UniProt P00533, DEL746-750); test: EGFR degradation HTRF assay, HCC827 cells; conditions: HCC827, 16h treatment
Protocol: as §1, §2, §3, §4, §5

EGFR WT (BaF3 WT cells) = EGFR WT (BaF3 WT cells) (Homo sapiens, UniProt P00533); test: EGFR degradation HTRF assay, BaF3 WT cells; type: cell-based
Protocol: as §1, §2, §3, §4, §5

[3] = 16h treatment, maximum percentage of degradation

COc1cc(CCC2CCN(CCc3ccc(C4CCC(=O)NC4=O)cc3)CC2)ccc1Nc1ncc(Br)c(Nc2ccc3nccnc3c2P(C)(C)=O)n1 (centres unmarked)
LTC Dmax (%) [1, 3]: 94.88% | DC50 ([1]; read-out: LTC DC50, 16h treatment): 9.53 nM | DTC Dmax (%) [2, 3]: 96.43% | DC50 ([2]; read-out: DTC DC50, 16h treatment): 8.86 nM | HCC827 Dmax (%) (EGFR (HCC827 cells); maximum percentage of degradation): 78.03% | DC50 (EGFR (HCC827 cells); read-out: HCC827 DC50): 77.3 nM | WT Dmax (%) (EGFR WT (BaF3 WT cells); [3]): 30.08% | DC50 (EGFR WT (BaF3 WT cells); read-out: WT DC50, 16h treatment): > 10000 nM
